{
  "source": "patent US9164109B2",
  "about": "“Use of probes for unbound metabolites” (priority 2006, dated 2015)",
  "assay": "UCBf measurement in 1% adult plasma titrated with UCB",
  "parameters": "species or system human",
  "conditions": "probe 0.5 μM",
  "data": [
    {"molecule": "L24P19C7: UCBf probe; FABP mutein of SEQ ID NO: 4 with Y14R M18L L38V V60R A72L A73F R106C Q115R Y117D (protein, listed as Rattus norvegicus, fluorescent probe label; MUTAGEN (72)...(72) rat intestinal fatty acid binding protein with alanine substitution for leucine at position 72 and Glu 131 to Asp subsitition.) AFDGTWKVDRNENREKFLEKMGINVVKRKLGAHDNLKVTITQEGNKFTVKESSNFRNIDRVFELGVDFAYSLFDGTELTGTWTMEGNKLVGKFKRVDNGKELIAVCEISGNELIRTDTYEGVEAKRIFKKDRGHHHHHH", "values": [
      {"measurement": "change of measured [UCBf] with the addition of UCB", "setting": "1% adult plasma titrated with UCB", "value": "monotonic increase"},
      {"measurement": "[UCBf] measured without the addition of UCB", "setting": "1% plasma from 6 healthy adult donors", "value": "nearly zero"}
    ]}
  ]
}
